Results as given in patent US20230276831A1, “Food/Beverage Article” (Kikkoman Corporation, priority 2020, published 2023).
This continues a long series; more values of the same kind are listed elsewhere.

Tested on: Lactobacillus rennini DSM 20253
Assay: Antimicrobial action of licoricidin in liquid seasoning (1), lactic acid bacteria A
Assay type: cell-based
Design: key: A: The bacterial count decreases to less than 10% of the bacterial count of the control group.; B: The bacterial count decreases to 10% or more and less than 50% of the bacterial count of the control group.; C: The bacterial count decreases to 50% or more and less than 100% of the bacterial count of control group.; D: The bacterial count is the same as the bacterial count of the control group
Procedure: Commercially available whole soybean soy sauce (produced by Kikkoman Corporation) was electrodialyzed and then concentrated under reduced pressure to obtain soy sauce at a salt concentration of 0% (w/v) and an alcohol concentration of 0% (v/v). Then, salt and/or alcohol was added to the above-mentioned obtained soy sauce, and the mixture was heat-treated to produce soy sauces at salt concentrations and alcohol concentrations shown in the following Table 5. The pHs of the soy sauces were 4.9 to 5.0. […]
Licoricidin (produced by ChemFaces) was added to each of the liquid seasonings produced in the above-mentioned (1) to concentrations of 1 ppm, 5 ppm, 10 ppm, 25 ppm, and 50 ppm. Lactic acid bacteria described in the following Table 9 were then added to 10^6 to 10^7 cells/mL and cultured at 30° C. for 7 days. After the culture, the number of lactic acid bacteria was measured using the GAM agar medium “Nissui”. Liquid seasoning to which licoricidin was not added was used as a control group, and the antimicrobial activity was evaluated in comparison with the number of lactic acid bacteria in the control group. The evaluation was performed using the criterion shown below.
• A: The bacterial count decreases to less than 10% of the bacterial count of the control group. • B: The bacterial count decreases to 10% or more and less than 50% of the bacterial count of the control group. • C: The bacterial count decreases to 50% or more and less than 100% of the bacterial count of control group. • D: The bacterial count is the same as the bacterial count of the control group.

Compound: COc1c(CC=C(C)C)c(O)cc2c1C[C@H](c1ccc(O)c(CC=C(C)C)c1O)CO2 [Licoricidin, 4-[(R)-7-hydroxy-5-methoxy-6-(3-methyl-2-butenyl)chroman-3-yl]-2-(3-methyl-2-butenyl)-1,3-benzenediol]
- Antimicrobial activity (Bonito stock (salt 0.2% (w/v), alcohol 0.15% (v/v), pH 6.1), licoricidin 1 ppm): C (The bacterial count decreases to 50% or more and less than 100% of the bacterial count of control group.)
- Antimicrobial activity (Bonito stock (salt 0.2% (w/v), alcohol 0.15% (v/v), pH 6.1), licoricidin 5 ppm): A (The bacterial count decreases to less than 10% of the bacterial count of the control group.)
- Antimicrobial activity (Bonito stock (salt 0.2% (w/v), alcohol 0.15% (v/v), pH 6.1), licoricidin 10 ppm): A (The bacterial count decreases to less than 10% of the bacterial count of the control group.)
- Antimicrobial activity (Bonito stock (salt 0.2% (w/v), alcohol 0.15% (v/v), pH 6.1), licoricidin 25 ppm): A (The bacterial count decreases to less than 10% of the bacterial count of the control group.)
- Antimicrobial activity (Bonito stock (salt 0.2% (w/v), alcohol 0.15% (v/v), pH 6.1), licoricidin 50 ppm): A (The bacterial count decreases to less than 10% of the bacterial count of the control group.)
- Antimicrobial activity (Japanese seasoned soup stock (salt 3% (w/v), alcohol 0.4% (v/v), pH 5.5), licoricidin 1 ppm): D
- Antimicrobial activity (Japanese seasoned soup stock (salt 3% (w/v), alcohol 0.4% (v/v), pH 5.5), licoricidin 5 ppm): B (The bacterial count decreases to 10% or more and less than 50% of the bacterial count of the control group.)
- Antimicrobial activity (Japanese seasoned soup stock (salt 3% (w/v), alcohol 0.4% (v/v), pH 5.5), licoricidin 10 ppm): A (The bacterial count decreases to less than 10% of the bacterial count of the control group.)
- Antimicrobial activity (Japanese seasoned soup stock (salt 3% (w/v), alcohol 0.4% (v/v), pH 5.5), licoricidin 25 ppm): A (The bacterial count decreases to less than 10% of the bacterial count of the control group.)
- Antimicrobial activity (Japanese seasoned soup stock (salt 3% (w/v), alcohol 0.4% (v/v), pH 5.5), licoricidin 50 ppm): A (The bacterial count decreases to less than 10% of the bacterial count of the control group.)
- Antimicrobial activity (Sauce (salt 5.3% (w/v), alcohol 0.8% (v/v), pH 5.0), licoricidin 1 ppm): D
- Antimicrobial activity (Sauce (salt 5.3% (w/v), alcohol 0.8% (v/v), pH 5.0), licoricidin 5 ppm): D
- Antimicrobial activity (Sauce (salt 5.3% (w/v), alcohol 0.8% (v/v), pH 5.0), licoricidin 10 ppm): A (The bacterial count decreases to less than 10% of the bacterial count of the control group.)
- Antimicrobial activity (Sauce (salt 5.3% (w/v), alcohol 0.8% (v/v), pH 5.0), licoricidin 25 ppm): A (The bacterial count decreases to less than 10% of the bacterial count of the control group.)
- Antimicrobial activity (Sauce (salt 5.3% (w/v), alcohol 0.8% (v/v), pH 5.0), licoricidin 50 ppm): A (The bacterial count decreases to less than 10% of the bacterial count of the control group.)
- Antimicrobial activity (Soy sauce, salt 0% (w/v), alcohol 0% (v/v), licoricidin 1 ppm): D
- Antimicrobial activity (Soy sauce, salt 0% (w/v), alcohol 0% (v/v), licoricidin 5 ppm): B (The bacterial count decreases to 10% or more and less than 50% of the bacterial count of the control group.)
- Antimicrobial activity (Soy sauce, salt 0% (w/v), alcohol 0% (v/v), licoricidin 10 ppm): B (The bacterial count decreases to 10% or more and less than 50% of the bacterial count of the control group.)
- Antimicrobial activity (Soy sauce, salt 0% (w/v), alcohol 0% (v/v), licoricidin 25 ppm): A (The bacterial count decreases to less than 10% of the bacterial count of the control group.)
- Antimicrobial activity (Soy sauce, salt 0% (w/v), alcohol 0% (v/v), licoricidin 50 ppm): A (The bacterial count decreases to less than 10% of the bacterial count of the control group.)
- Antimicrobial activity (Soy sauce, salt 0% (w/v), alcohol 5% (v/v), licoricidin 1 ppm): C (The bacterial count decreases to 50% or more and less than 100% of the bacterial count of control group.)
- Antimicrobial activity (Soy sauce, salt 0% (w/v), alcohol 5% (v/v), licoricidin 5 ppm): B (The bacterial count decreases to 10% or more and less than 50% of the bacterial count of the control group.)
- Antimicrobial activity (Soy sauce, salt 0% (w/v), alcohol 5% (v/v), licoricidin 10 ppm): B (The bacterial count decreases to 10% or more and less than 50% of the bacterial count of the control group.)
- Antimicrobial activity (Soy sauce, salt 0% (w/v), alcohol 5% (v/v), licoricidin 25 ppm): A (The bacterial count decreases to less than 10% of the bacterial count of the control group.)
- Antimicrobial activity (Soy sauce, salt 0% (w/v), alcohol 5% (v/v), licoricidin 50 ppm): A (The bacterial count decreases to less than 10% of the bacterial count of the control group.)
- Antimicrobial activity (Soy sauce, salt 0% (w/v), alcohol 10% (v/v), licoricidin 1 ppm): C (The bacterial count decreases to 50% or more and less than 100% of the bacterial count of control group.)
- Antimicrobial activity (Soy sauce, salt 0% (w/v), alcohol 10% (v/v), licoricidin 5 ppm): C (The bacterial count decreases to 50% or more and less than 100% of the bacterial count of control group.)
- Antimicrobial activity (Soy sauce, salt 0% (w/v), alcohol 10% (v/v), licoricidin 10 ppm): C (The bacterial count decreases to 50% or more and less than 100% of the bacterial count of control group.)
- Antimicrobial activity (Soy sauce, salt 0% (w/v), alcohol 10% (v/v), licoricidin 25 ppm): A (The bacterial count decreases to less than 10% of the bacterial count of the control group.)
- Antimicrobial activity (Soy sauce, salt 0% (w/v), alcohol 10% (v/v), licoricidin 50 ppm): A (The bacterial count decreases to less than 10% of the bacterial count of the control group.)
- Antimicrobial activity (Soy sauce, salt 4% (w/v), alcohol 0% (v/v), licoricidin 1 ppm): B (The bacterial count decreases to 10% or more and less than 50% of the bacterial count of the control group.)
- Antimicrobial activity (Soy sauce, salt 4% (w/v), alcohol 0% (v/v), licoricidin 5 ppm): A (The bacterial count decreases to less than 10% of the bacterial count of the control group.)
- Antimicrobial activity (Soy sauce, salt 4% (w/v), alcohol 0% (v/v), licoricidin 10 ppm): A (The bacterial count decreases to less than 10% of the bacterial count of the control group.)
